# These are yes or no findings as the source states them, for the method shown. Binding seen in cells or lysates may run through a third protein. A yes stands for co-enrichment or nearness to the bait. Other partners may have been found. Tags and fused reporters may be left off the sequences shown.
# Chains of the proteins cited; added tags and fusions are not shown.
# UniProt Q9Z329: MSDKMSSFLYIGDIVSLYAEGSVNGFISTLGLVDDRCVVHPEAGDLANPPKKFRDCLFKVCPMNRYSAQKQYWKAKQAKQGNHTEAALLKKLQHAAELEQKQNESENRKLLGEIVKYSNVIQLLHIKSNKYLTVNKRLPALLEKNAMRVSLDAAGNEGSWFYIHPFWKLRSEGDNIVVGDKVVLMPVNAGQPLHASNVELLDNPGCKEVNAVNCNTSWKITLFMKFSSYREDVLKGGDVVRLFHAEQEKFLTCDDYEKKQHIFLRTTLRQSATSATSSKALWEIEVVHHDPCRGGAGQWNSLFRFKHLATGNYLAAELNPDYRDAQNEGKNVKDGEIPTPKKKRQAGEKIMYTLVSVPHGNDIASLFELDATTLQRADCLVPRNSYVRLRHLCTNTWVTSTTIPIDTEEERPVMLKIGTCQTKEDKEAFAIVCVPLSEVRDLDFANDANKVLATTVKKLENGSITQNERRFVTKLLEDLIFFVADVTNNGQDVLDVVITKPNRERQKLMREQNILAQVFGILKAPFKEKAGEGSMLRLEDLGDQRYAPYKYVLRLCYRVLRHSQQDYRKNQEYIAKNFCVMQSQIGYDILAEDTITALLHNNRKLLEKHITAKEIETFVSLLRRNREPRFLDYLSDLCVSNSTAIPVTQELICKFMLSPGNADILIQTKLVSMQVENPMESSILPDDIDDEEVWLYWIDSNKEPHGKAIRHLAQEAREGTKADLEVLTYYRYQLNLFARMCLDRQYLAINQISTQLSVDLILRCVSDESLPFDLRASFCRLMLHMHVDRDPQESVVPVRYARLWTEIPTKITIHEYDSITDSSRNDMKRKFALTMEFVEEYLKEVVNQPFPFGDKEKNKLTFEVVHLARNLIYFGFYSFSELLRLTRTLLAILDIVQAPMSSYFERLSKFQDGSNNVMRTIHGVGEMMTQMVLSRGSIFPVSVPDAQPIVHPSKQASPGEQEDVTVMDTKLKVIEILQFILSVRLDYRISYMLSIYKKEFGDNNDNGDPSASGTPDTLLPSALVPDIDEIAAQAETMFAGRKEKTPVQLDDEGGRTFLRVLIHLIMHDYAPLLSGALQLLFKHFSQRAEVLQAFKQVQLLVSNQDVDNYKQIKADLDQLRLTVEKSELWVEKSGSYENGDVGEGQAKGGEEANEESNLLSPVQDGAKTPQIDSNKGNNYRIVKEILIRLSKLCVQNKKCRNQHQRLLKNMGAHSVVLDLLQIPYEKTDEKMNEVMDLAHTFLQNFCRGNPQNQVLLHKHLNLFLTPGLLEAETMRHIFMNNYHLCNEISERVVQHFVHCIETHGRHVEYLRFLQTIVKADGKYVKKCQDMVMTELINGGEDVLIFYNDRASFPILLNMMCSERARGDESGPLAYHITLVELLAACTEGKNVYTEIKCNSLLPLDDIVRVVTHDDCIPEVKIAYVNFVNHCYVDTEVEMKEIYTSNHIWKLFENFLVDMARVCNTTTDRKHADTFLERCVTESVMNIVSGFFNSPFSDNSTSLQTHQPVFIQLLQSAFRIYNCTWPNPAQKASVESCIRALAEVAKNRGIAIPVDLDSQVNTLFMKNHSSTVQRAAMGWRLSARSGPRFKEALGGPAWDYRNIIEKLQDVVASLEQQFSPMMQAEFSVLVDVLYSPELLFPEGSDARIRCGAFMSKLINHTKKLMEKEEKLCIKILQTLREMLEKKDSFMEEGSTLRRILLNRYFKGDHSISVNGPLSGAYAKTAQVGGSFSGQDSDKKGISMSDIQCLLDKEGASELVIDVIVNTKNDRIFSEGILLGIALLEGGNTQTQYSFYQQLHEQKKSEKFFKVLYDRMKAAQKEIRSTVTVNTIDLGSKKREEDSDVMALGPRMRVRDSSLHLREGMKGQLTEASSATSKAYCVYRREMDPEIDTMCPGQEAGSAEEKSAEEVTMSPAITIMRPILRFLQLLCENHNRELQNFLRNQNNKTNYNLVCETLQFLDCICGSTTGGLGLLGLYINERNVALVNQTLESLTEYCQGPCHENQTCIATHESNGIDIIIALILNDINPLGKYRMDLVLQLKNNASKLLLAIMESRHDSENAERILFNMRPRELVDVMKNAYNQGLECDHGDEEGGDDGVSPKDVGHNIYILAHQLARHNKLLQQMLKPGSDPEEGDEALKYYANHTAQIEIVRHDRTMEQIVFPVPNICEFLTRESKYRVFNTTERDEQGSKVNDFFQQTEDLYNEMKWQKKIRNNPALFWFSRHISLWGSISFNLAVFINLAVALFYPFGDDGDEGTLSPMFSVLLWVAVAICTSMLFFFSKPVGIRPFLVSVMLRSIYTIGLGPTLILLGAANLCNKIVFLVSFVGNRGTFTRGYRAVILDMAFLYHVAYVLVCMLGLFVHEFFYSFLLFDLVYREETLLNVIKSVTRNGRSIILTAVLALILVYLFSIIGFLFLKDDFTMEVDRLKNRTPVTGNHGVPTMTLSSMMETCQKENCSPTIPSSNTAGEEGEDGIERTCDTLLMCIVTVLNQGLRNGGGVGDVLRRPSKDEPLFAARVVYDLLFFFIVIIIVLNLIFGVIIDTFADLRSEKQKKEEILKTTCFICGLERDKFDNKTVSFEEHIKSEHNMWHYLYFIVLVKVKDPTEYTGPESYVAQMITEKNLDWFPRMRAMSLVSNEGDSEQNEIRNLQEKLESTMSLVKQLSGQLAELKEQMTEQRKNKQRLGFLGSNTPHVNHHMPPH
# UniProt P70227: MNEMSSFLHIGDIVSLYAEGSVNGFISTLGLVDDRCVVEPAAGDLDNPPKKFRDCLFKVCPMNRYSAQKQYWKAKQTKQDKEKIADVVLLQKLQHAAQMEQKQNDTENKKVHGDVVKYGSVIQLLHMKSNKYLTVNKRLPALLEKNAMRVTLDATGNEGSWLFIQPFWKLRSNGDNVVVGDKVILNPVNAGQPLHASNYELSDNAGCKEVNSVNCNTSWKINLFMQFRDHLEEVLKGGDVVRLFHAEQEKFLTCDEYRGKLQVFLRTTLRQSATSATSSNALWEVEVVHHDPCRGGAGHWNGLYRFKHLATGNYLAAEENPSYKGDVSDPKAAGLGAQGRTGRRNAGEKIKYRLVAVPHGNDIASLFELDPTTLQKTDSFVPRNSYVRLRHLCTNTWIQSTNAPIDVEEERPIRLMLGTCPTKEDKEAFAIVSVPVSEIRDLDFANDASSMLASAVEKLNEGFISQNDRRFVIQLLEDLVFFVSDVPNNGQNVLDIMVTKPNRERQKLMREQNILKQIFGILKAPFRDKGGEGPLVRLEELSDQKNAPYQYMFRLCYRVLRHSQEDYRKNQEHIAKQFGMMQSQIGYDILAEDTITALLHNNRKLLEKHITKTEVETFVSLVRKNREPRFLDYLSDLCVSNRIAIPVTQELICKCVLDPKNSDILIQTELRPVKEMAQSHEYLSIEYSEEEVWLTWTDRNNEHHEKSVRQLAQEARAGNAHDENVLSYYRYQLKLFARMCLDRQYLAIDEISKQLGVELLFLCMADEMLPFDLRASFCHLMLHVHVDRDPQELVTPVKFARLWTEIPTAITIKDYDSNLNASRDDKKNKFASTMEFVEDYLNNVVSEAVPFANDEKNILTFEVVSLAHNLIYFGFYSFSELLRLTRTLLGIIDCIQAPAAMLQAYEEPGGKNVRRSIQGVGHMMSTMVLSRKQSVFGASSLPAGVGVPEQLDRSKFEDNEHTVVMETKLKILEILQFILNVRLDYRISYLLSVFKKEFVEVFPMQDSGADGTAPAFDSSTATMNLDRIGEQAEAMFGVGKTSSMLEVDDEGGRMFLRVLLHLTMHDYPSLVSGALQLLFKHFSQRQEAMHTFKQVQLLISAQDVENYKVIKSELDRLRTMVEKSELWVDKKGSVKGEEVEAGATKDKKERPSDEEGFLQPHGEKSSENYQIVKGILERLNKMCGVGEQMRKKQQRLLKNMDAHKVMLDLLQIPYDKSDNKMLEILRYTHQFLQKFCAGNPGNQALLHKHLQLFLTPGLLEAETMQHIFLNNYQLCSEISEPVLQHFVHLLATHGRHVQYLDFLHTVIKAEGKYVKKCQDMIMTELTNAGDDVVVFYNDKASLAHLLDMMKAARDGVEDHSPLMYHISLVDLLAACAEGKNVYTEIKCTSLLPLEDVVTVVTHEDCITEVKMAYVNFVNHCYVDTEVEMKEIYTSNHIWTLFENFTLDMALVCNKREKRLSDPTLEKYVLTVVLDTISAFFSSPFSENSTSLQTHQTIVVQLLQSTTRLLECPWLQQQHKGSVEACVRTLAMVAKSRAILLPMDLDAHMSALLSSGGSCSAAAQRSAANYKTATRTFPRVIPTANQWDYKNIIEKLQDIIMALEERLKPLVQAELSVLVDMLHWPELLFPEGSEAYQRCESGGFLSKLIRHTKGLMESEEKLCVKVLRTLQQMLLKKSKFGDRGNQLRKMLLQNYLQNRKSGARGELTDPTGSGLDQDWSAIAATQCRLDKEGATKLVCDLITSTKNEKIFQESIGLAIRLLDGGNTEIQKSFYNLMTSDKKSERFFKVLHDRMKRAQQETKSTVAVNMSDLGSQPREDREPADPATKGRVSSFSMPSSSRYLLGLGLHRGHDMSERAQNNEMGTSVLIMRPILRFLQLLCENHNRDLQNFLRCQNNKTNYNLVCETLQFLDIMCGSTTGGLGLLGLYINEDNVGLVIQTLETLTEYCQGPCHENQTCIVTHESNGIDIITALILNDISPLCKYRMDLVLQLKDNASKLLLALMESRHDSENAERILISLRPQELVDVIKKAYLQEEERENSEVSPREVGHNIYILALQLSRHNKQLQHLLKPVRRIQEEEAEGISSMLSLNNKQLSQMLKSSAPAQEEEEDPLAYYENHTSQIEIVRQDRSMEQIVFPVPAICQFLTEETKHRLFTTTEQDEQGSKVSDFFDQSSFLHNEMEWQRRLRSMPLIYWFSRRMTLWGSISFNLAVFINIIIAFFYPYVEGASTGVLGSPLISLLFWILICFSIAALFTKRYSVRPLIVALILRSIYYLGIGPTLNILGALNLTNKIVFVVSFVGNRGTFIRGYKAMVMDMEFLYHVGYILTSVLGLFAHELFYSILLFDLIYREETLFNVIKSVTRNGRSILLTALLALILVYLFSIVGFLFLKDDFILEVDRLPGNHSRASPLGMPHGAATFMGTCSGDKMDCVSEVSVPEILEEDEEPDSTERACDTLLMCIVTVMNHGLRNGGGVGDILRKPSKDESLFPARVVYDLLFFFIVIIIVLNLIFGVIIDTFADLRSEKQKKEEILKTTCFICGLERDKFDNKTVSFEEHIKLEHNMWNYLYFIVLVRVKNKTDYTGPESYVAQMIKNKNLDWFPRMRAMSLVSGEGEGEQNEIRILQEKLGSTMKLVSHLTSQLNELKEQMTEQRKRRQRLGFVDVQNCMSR
# Biological target: T1, Lrmp-Flag (mouse) (UniProt Q60664)
# T1 sequence: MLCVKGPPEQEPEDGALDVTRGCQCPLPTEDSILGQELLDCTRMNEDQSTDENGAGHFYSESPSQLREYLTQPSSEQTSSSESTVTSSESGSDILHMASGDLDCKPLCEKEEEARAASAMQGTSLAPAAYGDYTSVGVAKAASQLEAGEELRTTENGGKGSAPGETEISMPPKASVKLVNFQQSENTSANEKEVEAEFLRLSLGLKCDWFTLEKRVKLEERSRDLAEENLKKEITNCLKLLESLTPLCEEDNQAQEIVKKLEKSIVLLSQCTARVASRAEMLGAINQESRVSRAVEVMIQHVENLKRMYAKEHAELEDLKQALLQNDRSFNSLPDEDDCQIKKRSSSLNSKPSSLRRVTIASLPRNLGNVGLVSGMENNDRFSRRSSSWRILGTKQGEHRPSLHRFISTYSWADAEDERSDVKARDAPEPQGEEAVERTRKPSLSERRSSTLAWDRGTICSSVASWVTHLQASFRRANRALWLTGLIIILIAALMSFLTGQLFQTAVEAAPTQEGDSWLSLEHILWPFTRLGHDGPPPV
# Test: affinity purification with mass spectrometry; WT MEFs transfected with Lrmp-Flag alone or together with ITPR2-HA; Lrmp-Flag pulled down with anti-Flag beads, eluted with 3xFlag peptide, LC-MS/MS
row,binding,Substance
1,binds,ITPR1 (from UniProt P11881 1-2749) (receptor)
2,binds,ITPR2 (from UniProt Q9Z329 1-2701) (receptor)
3,binds,ITPR2-HA (from UniProt Q9Z329 1-2701) (receptor)
4,binds,ITPR3 (from UniProt P70227 1-2670) (receptor)
